# Results deposited as PubChem BioAssay AID1159578 (Peter MacCallum Cancer Centre, 2015).
# Assay: 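siRNA pools altering how lymphatic endothelial cells close a scratch wound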 (primary screen)
# Cells: human lymphatic endothelial cells
# Knock-down reagent: siRNA pool against human genes, 40 nM
# Duration: 48 h after transfection
# Read-out: 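High-content imaging of dye-stained cells in a scratch assay measures filled wound area and nuclei per well; duplicate means given as ratio to mock and robust z-score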
# Reading the numbers: migration robust z-score: higher = faster migration into the scratch; migration relative to mock: higher = more scratch area covered than mock; nuclei per well: higher = more cells in the well
# Rule for the call: 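Migration changed when robust z exceeds 2 or falls below -2 and mean nuclei number is at least 3300; otherwise not called changed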
# Calls: active = migration changed; inactive = no migration change, or too few cells
# The deposit covers about 18,000 reagents; below is an unselected part. About 1,030 of them (5.7%) count as active. 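Inactive calls also include pools with fewer than 3300 nuclei, whose migration was not assessed.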 The raw values are shown without normalisation. A number with no mark means an inactive call.
Target gene,migration robust z-score,migration class with cell-count check,migration relative to mock,"nuclei per well, duplicate mean"
BUB1B,-2.29 (active),migration z below -2; enough cells,0.36,4434
SPATA31E1,-0.01,migration z between -2 and 2; enough cells,0.88,4374
GPR135,0.55,migration z between -2 and 2; enough cells,0.91,7224
POLR1E,-2.12 (active),migration z below -2; enough cells,0.33,5057
HECTD1,0.47,migration z between -2 and 2; enough cells,0.89,5220
MC4R,0.88,migration z between -2 and 2; enough cells,0.98,5553
AKIP1,0.01,migration z between -2 and 2; enough cells,0.89,5630
LYPD6B,1.1,migration z between -2 and 2; enough cells,1.17,5152
YTHDF1,-0.03,migration z between -2 and 2; enough cells,0.88,5848
MTMR4,-0.8,migration z between -2 and 2; enough cells,0.65,5663
TBPL2,0.57,migration z between -2 and 2; enough cells,1.04,6038
TMEM134,0.04,migration z between -2 and 2; enough cells,0.89,3938
ZNF565,0.11,migration z between -2 and 2; enough cells,0.92,5515
SEPTIN2,1.89,migration z between -2 and 2; enough cells,1.38,5406
PMM2,-0.31,migration z between -2 and 2; enough cells,0.74,5124
SNIP1,-1.07,migration z between -2 and 2; enough cells,0.6,4722
SNRNP40,1.09,migration z between -2 and 2; enough cells,1.17,6646
NFYA,2.1 (active),migration z above 2; enough cells,1.21,5724
SLC5A11,-1.17,migration z between -2 and 2; enough cells,0.58,4020
GDE1,1.64,migration z between -2 and 2; enough cells,1.12,5308
PKD1L3,-0.73,migration z between -2 and 2; enough cells,0.66,4930
HDHD2,-1.82,migration z between -2 and 2; enough cells,0.46,4596
POLQ,0.28,migration z between -2 and 2; enough cells,0.86,6242
COLEC11,1.79,migration z between -2 and 2; enough cells,1.35,6482
TEKTL1,-1.19,migration z between -2 and 2; enough cells,0.57,5812
NECAP2,0.9,migration z between -2 and 2; enough cells,1.12,4287
SMARCAD1,-0.36,migration z between -2 and 2; enough cells,0.79,5203
RNASEH1,0.76,migration z between -2 and 2; enough cells,0.95,6374
DRC9,-0.22,migration z between -2 and 2; enough cells,0.83,5969
POLA2,1.04,migration z between -2 and 2; enough cells,1,4598
RAB7B,1.06,migration z between -2 and 2; enough cells,1.16,6674
GLYR1,-0.04,migration z between -2 and 2; enough cells,0.87,5843
SLC35A1,-1.15,migration z between -2 and 2; enough cells,0.58,3374
PTGES,-0.86,migration z between -2 and 2; enough cells,0.66,7710
PCK1,-1.22,migration z between -2 and 2; enough cells,0.57,4108

A run of entries taken from the entries so far, for reference:
Target gene,migration robust z-score,migration class with cell-count check,migration relative to mock,"nuclei per well, duplicate mean"
SLC5A11,-1.17,migration z between -2 and 2; enough cells,0.58,4020
GDE1,1.64,migration z between -2 and 2; enough cells,1.12,5308
PKD1L3,-0.73,migration z between -2 and 2; enough cells,0.66,4930
HDHD2,-1.82,migration z between -2 and 2; enough cells,0.46,4596
POLQ,0.28,migration z between -2 and 2; enough cells,0.86,6242
COLEC11,1.79,migration z between -2 and 2; enough cells,1.35,6482
TEKTL1,-1.19,migration z between -2 and 2; enough cells,0.57,5812

The listing continues:
Target gene,migration robust z-score,migration class with cell-count check,migration relative to mock,"nuclei per well, duplicate mean"
FCN3,-0.34,migration z between -2 and 2; enough cells,0.8,6065
MORF4L1,1.44,migration z between -2 and 2; enough cells,1.27,4434
TNFAIP8,-0.83,migration z between -2 and 2; enough cells,0.64,6562
MEA1,-0.64,migration z between -2 and 2; enough cells,0.72,6864
CRLS1,0.88,migration z between -2 and 2; enough cells,0.98,6568
ATN1,-1.12,migration z between -2 and 2; enough cells,0.59,6199
FKBP7,0.72,migration z between -2 and 2; enough cells,0.94,3770
FCGR2C,0.64,migration z between -2 and 2; enough cells,1.05,6119
EIF2AK2,-0.24,migration z between -2 and 2; enough cells,0.76,6064
TMEM43,2.22 (active),migration z above 2; enough cells,1.46,5996
OR2AT4,0.12,migration z between -2 and 2; enough cells,0.92,6038
GFAP,0.84,migration z between -2 and 2; enough cells,1.1,6355
THAP2,-0.37,migration z between -2 and 2; enough cells,0.79,5686
ABHD17C,-0.08,migration z between -2 and 2; enough cells,0.79,4756
USB1,-1.8,under 3300 nuclei; migration not judged,0.41,2867
NDOR1,0.29,migration z between -2 and 2; enough cells,0.86,6996
PDS5A,0.9,migration z between -2 and 2; enough cells,1.12,6494
QRSL1,0.18,migration z between -2 and 2; enough cells,0.84,6172
TMC6,1.58,migration z between -2 and 2; enough cells,1.11,5565
DTYMK,-1.84,migration z between -2 and 2; enough cells,0.45,3409
DYNC2LI1,1.61,migration z between -2 and 2; enough cells,1.3,4738
DSP,0.8,migration z between -2 and 2; enough cells,1.09,5396
RFPL4B,0.83,migration z between -2 and 2; enough cells,0.97,5194
CALD1,0.37,migration z between -2 and 2; enough cells,0.98,6100
LINC02872,1.86,migration z between -2 and 2; enough cells,1.36,5392
ZNF285,1.31,migration z between -2 and 2; enough cells,1.23,5280
MACROD2,-0.21,migration z between -2 and 2; enough cells,0.83,7325
ZNF426,1.31,migration z between -2 and 2; enough cells,1.23,6772
YES1,-0.86,migration z between -2 and 2; enough cells,0.64,5080
UBR4,0.66,migration z between -2 and 2; enough cells,1.06,5926
SERPINB10,1.29,migration z between -2 and 2; enough cells,1.22,6139
USP27X,-1.02,migration z between -2 and 2; enough cells,0.61,4090
CCAR1,-1.41,migration z between -2 and 2; enough cells,0.52,5249
NSUN5P2,2.07 (active),migration z above 2; enough cells,1.42,5912
HERC5,-0.42,migration z between -2 and 2; enough cells,0.72,5416
SCML2,-0.08,migration z between -2 and 2; enough cells,0.79,5424
RNF41,0.08,migration z between -2 and 2; enough cells,0.82,4876
SERPINB13,-0.39,migration z between -2 and 2; enough cells,0.73,6386
